Experiment [1] deals with T1, human Zcytor2 receptor expressed on transfected BHK cells (human) (UniProt Q14627).
T1 sequence: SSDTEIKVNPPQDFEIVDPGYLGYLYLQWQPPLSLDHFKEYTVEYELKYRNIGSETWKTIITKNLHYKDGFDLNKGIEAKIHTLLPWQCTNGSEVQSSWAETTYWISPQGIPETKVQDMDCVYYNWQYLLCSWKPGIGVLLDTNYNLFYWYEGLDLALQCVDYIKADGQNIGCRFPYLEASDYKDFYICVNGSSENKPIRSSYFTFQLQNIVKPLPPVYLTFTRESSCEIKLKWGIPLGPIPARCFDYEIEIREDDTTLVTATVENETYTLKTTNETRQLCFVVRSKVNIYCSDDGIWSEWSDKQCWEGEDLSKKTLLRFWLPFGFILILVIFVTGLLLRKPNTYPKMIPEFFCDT
Description: 125I-IL-13 binding to transfected BHK cells with or without cold IL-13, gamma counting.

The chains behind the UniProt entries cited, without tags or fusion partners. Residues count along the entry.
UniProt P35225, residues 35-146: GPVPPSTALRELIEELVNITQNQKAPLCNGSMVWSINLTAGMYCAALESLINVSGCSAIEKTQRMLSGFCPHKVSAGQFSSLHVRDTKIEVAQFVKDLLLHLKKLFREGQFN

The target in experiment [2] is T1, human Zcytor2 receptor expressed on transfected BHK cells (human). Description: competition of unlabeled IL-13 against 125I-IL-13 on Zcytor2-transfected BHK cells.
Experiment [3] shares this target. Description: unlabeled IL-13 competing with 125I-IL-13 on BHK/Zcytor2 cells.

These are yes or no findings as the source states them, for the method shown. Some entries that bind do so weakly or less than the wild type.

Consider “125I-IL-13 (from UniProt P35225 35-146) (ligand)”, for which the binding result in experiment [1] was “binds”.

For the substance “unlabeled IL-13 (from UniProt P35225 35-146) (ligand)”, the binding result in experiment [2] and in experiment [3] was “binds” each time.

For the origin of these results see patent US20060110800A1 (ZymoGenetics, published 2006).
